The results in this text go back to PMC3844406.

The experiment deals with T1, Kin28 alone, binding-domain fusion from pGBD-Kin28 (UniProt P06242).
T1 sequence: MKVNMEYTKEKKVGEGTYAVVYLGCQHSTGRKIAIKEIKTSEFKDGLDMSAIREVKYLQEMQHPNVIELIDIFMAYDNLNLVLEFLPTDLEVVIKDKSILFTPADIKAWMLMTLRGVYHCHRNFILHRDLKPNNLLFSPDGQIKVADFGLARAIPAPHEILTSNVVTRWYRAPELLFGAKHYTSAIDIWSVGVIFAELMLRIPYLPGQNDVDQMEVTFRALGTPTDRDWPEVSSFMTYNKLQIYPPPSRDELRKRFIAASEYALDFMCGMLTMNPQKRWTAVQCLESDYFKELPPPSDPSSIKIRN
Nature of the experiment: two-hybrid; modified yeast two-hybrid; bait: pGBD fusions (CTD-Kin28, CTD-mKin28, Kin28); prey: pGAD-PCFS4; the tethered Kin28 phosphorylates the CTD.

No constants are given. Whether binding was seen depends on the method and setting. Sequences can lack the tags named with a protein.

B1: Arabidopsis Pcf11-similar-4 protein (PCFS4), activation-domain fusion from pGAD-PCFS4 (protein, UniProt Q0WPF2 1-808)
chain: MDSEKILNPRLVSINSTSRKGMSVELPQKPPPPPSLLDRFKALLNQREDEFGGGEEVLPPSMDEIVQLYEVVLGELTFNSKPIITDLTIIAGEQREHGEGIANAICTRILEAPVEQKLPSLYLLDSIVKNIGRDYGRYFSSRLPEVFCLAYRQAHPSLHPSMRHLFGTWSSVFPPPVLRKIDMQLQLSSAANQSSVGASEPSQPTRGIHVNPKYLRRLEPSAAENNLRGINSSARVYGQNSLGGYNDFEDQLESPSSLSSTPDGFTRRSNDGANPSNQAFNYGMGRATSRDDEHMEWRRKENLGQGNDHERPRALIDAYGVDTSKHVTINKPIRDMNGMHSKMVTPWQNTEEEEFDWEDMSPTLDRSRAGEFLRSSVPALGSVRARPRVGNTSDFHLDSDIKNGVSHQLRENWSLSQNYPHTSNRVDTRAGKDLKVLASSVGLVSSNSEFGAPPFDSIQDVNSRFGRALPDGTWPHLSARGPNSLPVPSAHLHHLANPGNAMSNRLQGKPLYRPENQVSQSHLNDMTQQNQMLVNYLPSSSAMAPRPMQSLLTHVSHGYPPHGSTIRPSLSIQGGEAMHPLSSGVLSQIGASNQPPGGAFSGLIGSLMAQGLISLNNQPAGQGPLGLEFDADMLKIRNESAISALYGDLPRQCTTCGLRFKCQEEHSKHMDWHVTKNRMSKNHKQNPSRKWFVSASMWLSGAEALGAEAVPGFLPTEPTTEKKDDEDMAVPADEDQTSCALCGEPFEDFYSDETEEWMYKGAVYMNAPEESTTDMDKSQLGPIVHAKCRPESNGGDMEEGSQRKKMRS
With B1, the binding entry is given as “no binding”.
